33 compounds from PubChem BioAssay AID493014 (National Center for Advancing Translational Sciences (NCATS), 2011) can be followed below.

Structures are written as SMILES. The list shows a part of the results. Further columns of the screen follow, without active or inactive calls. The list favours compounds with an active or inconclusive main result. Words in brackets tell the shape of the fitted curve; partial curves, single points and poor fits give uncertain potencies.

This assay can be described thus: qHTS Assay to Find Inhibitors of Chronic Active B-Cell Receptor Signaling. The note with it: ABC-DLBCL IkBa-CBG/CBR reporter, luminescence ratio (green luciferase fused to IkBa over red control in TMD8 lymphoma cells), 4 h. The source says: NIH Molecular Libraries Probe Production Network [MLPCN] NIH Chemical Genomics Center [NCGC] MLPCN Grant: 1 R03 DA031086-01A1 PI Name: Dr. R. Eric Davis NCGC Assay Overview: Diffuse large B-cell lymphoma (DLBCL) is the most common category of non-Hodgkin lymphoma, with ~20,000 new cases per year in the United States. DLBCL should be regarded as a collection of different neoplasms. Microarray gene expression analysis has defined two principal types of DLBCL, named for their similarity to normal B cell stages or activation states: a germinal center B-cell (GCB) type, and an activated B-cell (ABC) type. In ABC-DLBCL, a constitutive high-level activity of the NF-kappaB family of transcription factors has been observed (1) and NF-kappaB target genes are more highly expressed in ABC primary tumors than in GCB tumors. Functional studies have shown a constitutive high-level activity of the IkappaB (inhibitor of kappa-B) kinase (IKK) complex. […] Further analysis of DLBCL primary tumors for NF-kappaB target gene expression imply that although CARD11 is required for constitutive IKK activity in all ABC-DLBCL lines, mutations in CARD11 may be the root cause of IKK activation only in lines or tumors with such mutations. In other words, CARD11 mutations may explain NF-kappaB activation in only 10% of ABC-DLBCL cases. […] This process has been termed 'chronic active BCR signaling' (CABS). The goal of this screen is to find small-molecule inhibitors of the CABS pathway found in ABC-DLBCL lines using a cell-based assay that measures IkappaBalpa stability, which has already been extensively validated in the OCI-Ly3 line (PubChem AID:445; REF: 4). […] The assay uses green (CBG68) and red (CBR) emitting beetle luciferases [Chroma-GloTM developed by Promega Corp.] where the green luciferase is fused to IkappaBalpha and the red luciferase is present in its native state. Both luciferase genes are stably present in the TMD8 human ABC DLBCL cell line, but their expression is under the control of tetracycline-inducible promoters. Following the addition of doxycycline to induce expression of the luciferases, the green luminescence in control cultures rises only slowly because the CBG fusion partner IkappaBalpha is targeted by IKK activity for rapid degradation. In contrast, green luminescence rises rapidly in the presence of proteasome inhibitors or IKK inhibitors. The rise in red luminescence of CBR is not affected by proteasome or IKK inhibitors, and serves as normalization for cell number and nonspecific effects. Compounds were screened as a concentration-titration series that ranged from 46 uM to 3 nM.
NCGC Assay Protocol Summary: Cells were seeded in 1536-well plates at 5000 cells/4uL in IMDM medium containing 0.5% FBS, w/o phenol red, 1% penicillin/streptomycin. Then, 23 nL of compounds or DMSO were delivered to each well using a pin tool. One uL 20ng/ml doxycycline was then dispensed into white solid 1536-well plates and the plates were incubated at 37C/5% C02 in a cell incubator for 4 hrs. Then 4 uL luminescent substrate mix (in-house prepared: 150 mM Tris-Cl, pH 7.6, 3 mM MgCl2, 1% Triton X-100, 5 mM DTT, 0.2 mM CoA, 0.15 mM ATP, 5 mM D-luciferin, final concentrations) was added to each well. The plate was incubated at r.t. for 10-15 min. The plates were measured on a ViewLux plate reader for green luminescence (540/20 nm filter) and red luminescence (618/8 nm filter). The green and red luminescent signals were corrected for red and green luminescence filter overlap using previously determined filter calibration constants (determined using the procedure outlined in the Promega Technical Manual; REF 4). The %Activity was determined from the ratio of corrected green/red luminescent values. MG132 were used as control. […] Red luminescent %Activity was normalized to the difference between red luminesence in basal cells (0%Activity) and zero luminescence (-100% Activity). […]
(In general: In qHTS, concentration-response curves come from the screen itself.)

Where [1] appears, read: measured here: CBR red luminescence, cell number.
Setting [2] is: measured here: IkBa-CBG green luminescence.

In general, AC50 refers to the midpoint of the concentration-response curve, whichever way the signal moves.

Take `COC(=O)c1sc(=S)n(-c2ccc(Cl)cc2)c1C`: the concentration at half-maximal activity (AC50) under setting [1] was 23.1 µM [rising, partial curve, poor fit].
As to `CC1CCN(Cc2ccc(NC(=O)CC3Oc4ccccc4NC3=O)cc2)CC1` (centres undefined), the half-maximal activity concentration (AC50) under setting [1] was 29.1 µM [falling, single point].
For `COc1ccc2oc(-c3ccccc3[N+](=O)[O-])cc(=O)c2c1`, under setting [2], the AC50 is 35.5 µM [falling, partial curve, poor fit].
As to `CN(C)S(=O)(=O)c1cccc(NC(=S)N/N=C/c2ccc(O)c(O)c2O)c1`, the concentration at half-maximal activity (AC50) under setting [1] is 35.5 µM [falling, single point].
The same measure, in the same setting: under `O=C(NCc1ccccc1C(F)(F)F)c1cccc2c1C(=O)c1ccc(N3CCOCC3)cc1S2(=O)=O` stands 14.6 µM [rising, single point].
`COc1ccccc1NC(=S)NCc1cccs1`: the AC50 under setting [1] is 0.58 µM [rising, full curve, poor fit].
For the compound `O=C(CCc1ccccc1)NCCc1ccc(F)cc1`, the AC50 under setting [1] is 35.5 µM [falling, single point].
For the compound `COc1ccccc1C(=O)Nc1ccc2nc(SCC(=O)N(C)C)sc2c1`, the AC50 under setting [1] is 9.2 µM [rising, partial curve, poor fit].
On the same count and under the same terms, under `O=C(Nc1ccc(Cl)cc1)N1CCSc2ccccc21` stands 4.47 µM [rising, partial curve].
`COc1ccc(-n2nnnc2SCC(=O)Nc2ccc3c(c2)OCCO3)cc1OC`: the AC50 under setting [1] is 25.9 µM [rising, single point].
In the case of `O=C(N/N=C/c1cc(Br)c(O)c(Br)c1)c1cccnc1`, the half-maximal activity concentration (AC50) under setting [1] is 3.55 µM [falling, single point].
Turning to `COC(=O)c1cc(C#N)c(NCc2ccccc2)nc1C`, under setting [1], the concentration at half-maximal activity (AC50) is 29.1 µM [rising, single point].
Take `COc1ccc(C(=O)OCC(=O)Nc2ccc(N3CCOCC3)cc2)cc1OC`: the half-maximal activity concentration (AC50) under setting [1] was 29.1 µM [rising, single point].
Still for that read-out and setting: as for `O=C(CSc1nnc(-c2ccc(O)cc2)o1)Nc1ccccc1Br`, the figure is 14.1 µM [falling, partial curve, poor fit]; as for `O=C(NCc1ccc(F)cc1)C(c1ccc(Cl)cc1)N(C(=O)c1csnn1)C1CC1` (centres undefined), 20 µM [falling, partial curve, poor fit].
On the same count and under the same terms, as for `CCCCn1c(N)c(N(C(=O)CSc2nnc(C)n2-c2ccccc2)C2CCCC2)c(=O)[nH]c1=O`, the figure is 2.31 µM [rising, partial curve, poor fit]; as for `O=C(NCCc1ccc2c(c1)OCCO2)c1cccc(S(=O)(=O)N2CCCC2)c1`, 0.291 µM [rising, full curve, poor fit].
In the case of `Cc1ccnc(NS(=O)(=O)Cc2ccccc2)c1`, the AC50 under setting [1] is 31.6 µM [rising, single point].
Same read-out and setting: under `O=C1c2cc3ccccc3c(-c3ccccc3)c2C(=O)N1c1ccccn1` stands 14.6 µM [rising, partial curve].
On to `Cc1c(C(c2ccc(Br)cc2)c2c(C)n(C)n(-c3ccccc3)c2=O)c(=O)n(-c2ccccc2)n1C`, for which the concentration at half-maximal activity (AC50) under setting [1] was 10 µM [rising, partial curve].
`Cc1cccc2nc(-c3cccnc3)c(Nc3ccccc3)n12`: the concentration at half-maximal activity (AC50) under setting [1] was 35.5 µM [falling, single point].
For the compound `Cc1ccccc1N/C=C/C(=C(C#N)C#N)N(C)C`, under setting [1], the concentration at half-maximal activity (AC50) was 6.31 µM [rising, single point].
For the compound `O=C(N/N=C/c1cccnc1)c1cc2c(ccc3ccccc32)o1`, under setting [1], the AC50 is 14.6 µM [falling, partial curve, poor fit].
With `O=C(COc1ccccc1[N+](=O)[O-])NCCC1=CCCCC1`, the half-maximal activity concentration (AC50) under setting [1] was 0.562 µM [rising, full curve, poor fit].
Regarding `CSc1nnc(Cc2sc(-c3ccccc3)nc2-c2ccccc2)o1`, the AC50 under setting [1] is 0.092 µM [rising, full curve, poor fit].
In the case of `CC(C)C1C(=O)NC(=S)N1S(=O)(=O)c1ccc(C(C)(C)C)cc1` (centres undefined), the AC50 by setting is: under setting [1], 20.6 µM [falling, partial curve, poor fit]; under setting [2], 20.6 µM [rising, partial curve, poor fit].
Regarding `Cc1ccc(NCc2nnc(SCC(N)=O)n2CCc2ccccc2)cc1`, the AC50 under setting [1] is 0.517 µM [falling, full curve, poor fit].
The same measure, in the same setting: under `Cc1c(C(=O)O)sc2nc(SCC(=O)Nc3ccc(S(=O)(=O)NC(C)(C)C)cc3)[nH]c(=O)c12` stands 35.5 µM [falling, single point].
Same read-out and setting: under `CCOC(=O)c1cc(-c2ccccc2)n(-c2cccc(C(=O)Nc3cccc(C(C)=O)c3)c2)c1C` stands 3.98 µM [falling, single point]; under `CCN(CC)S(=O)(=O)c1cccc(C(=O)Nc2nc3cc4c(cc3s2)OCCO4)c1`, 14.1 µM [falling, partial curve, poor fit].
Regarding `CCc1cc2cc(C)cc(C)c2nc1SCC(=O)N1CCN(C(=O)c2ccco2)CC1`, the AC50 under setting [1] is 11.2 µM [rising, partial curve, poor fit].
On to `O=C(O)c1cccc(S(=O)(=O)Nc2cc(Cl)ccc2Cl)c1`, for which the concentration at half-maximal activity (AC50) under setting [1] was 3.55 µM [rising, single point].
In the case of `O=S(=O)(NCCO)c1ccc2c(c1)Cc1cc(S(=O)(=O)NCCO)ccc1-2`, under setting [1], the concentration at half-maximal activity (AC50) was 35.5 µM [rising, partial curve, poor fit].
